Experimental data taken from publication PMC12040169 (PLOS Biology, 2025).
The list shows a part of the results.

Test system: T1, CTL2-GFP (C. trachomatis L2/434/Bu, GFP-expressing)
T1 construct: L2/434/Bu, GFP-expressing
Parameters: species or system HeLa; Intracellular C. trachomatis growth in HeLa cells, bulk GFP fluorescence relative to DMSO
Conditions: bulk GFP, single well; 28.5 h, 10 µM; inhibitor

Row | Compound | % of control remaining
1 | c1ccc(Oc2ccccc2-c2cc(NCCc3c[nH]cn3)ncn2)cc1 [CBK037845] | 99.7322%
2 | O=C(NC(c1ccc(Cl)cc1)c1cnccn1)C1CCN(C(=O)N2CCOCC2)CC1 (centres unmarked) [CBK059635] | 165.321%
3 | CC(=O)N[C@H]1CC[C@]2(C)CCC([C@H](C)C(=O)N(C)Cc3ccccc3)[C@H](O)[C@H]2[C@@H]1C (some centres unmarked) [CBK289435] | 104.987%
4 | O=C(Nc1ccccc1C(F)(F)F)NC1CC2CCCC(C1)N2C1CC1 (centres unmarked) [CBK143578] | 131.508%
5 | CCn1c2ccccc2c2cc(NC(=O)CC(C)CC(=O)O)ccc21 (centres unmarked) [CBK300031] | 121.002%
6 | CC(C)Cn1cnc2c(c1=N)C(c1ccccc1)c1ccc(O)cc1O2 (centres unmarked) [CBK287864] | 124.719%
7 | Cc1cc(NC(=O)c2cccc(C#N)c2)c2ccccc2n1 [CBK116267] | 134.506%
8 | COCCCNC(=O)Cn1cnc2sc(C)cc2c1=O [CBK071899] | 107.477%
9 | O=C(c1cc[nH]c1)N1CCN(C(=O)c2ccco2)CC1 [CBK144467] | 108.626%
10 | CCN1C(=O)COC[C@@H]1[C@H](O)c1ccc(NC(=O)C2CCC2)cc1 [CBK289686] | 141.821%
11 | N#Cc1ccc(Cn2cnc(NC(=O)c3cnccn3)n2)cc1 [CBK305233] | 111.541%
12 | CC(C)(C)c1ccc(NC(=O)n2ccc3c(N4CCNCC4)cccc32)cc1 [CBK003736C] | 41.1638%
13 | Cc1cc2cn([C@H]3C[C@@H](O)[C@@H](CO)O3)c(=O)nc2o1 [CBK201287] | 128.784%
14 | O=C(NC/C=C/c1cn(C2OC(CO)C(O)C2O)c(=O)[nH]c1=O)C(F)(F)F (centres unmarked) [CBK201298] | 79.1353%
15 | O=C(NCc1cccc(OCC2CCCO2)c1)C1C2CCCCC21 (centres unmarked) [CBK281517] | 141.252%
16 | O=C(O)C1Nc2c(Cl)cc(Cl)cc2C2C=CCC12 (centres unmarked) [CBK077855] | 134.838%
17 | C/C(=N/OCO/N=C(\C)c1cccc([N+](=O)[O-])c1)c1cccc([N+](=O)[O-])c1 [CBK260872] | 121.895%
18 | O=C1N[C@@H]2CCN(Cc3cnccn3)C[C@H]2C/C=C/CC2(CCOCC2)C(=O)N[C@H]1Cc1ccccc1 [CBK292189] | 102.766%
19 | O=C(CSCc1ccccc1)Nc1ccc(S(=O)(=O)N2CCOCC2)cc1 [CBK087885] | 100%
20 | COc1ccc(Cl)cc1NC(=O)COc1cccc2ccccc12 [CBK262995] | 141.541%
21 | COc1ccc(Cl)cc1NC(=O)CN(c1cc([N+](=O)[O-])ccc1C)S(C)(=O)=O [CBK266394] | 131.434%
22 | O=C(c1ccc2nccnc2c1)N1CCCc2ccccc21 [CBK200257] | 59.2805%
23 | COc1ccc(CNC(=O)Cn2nc3c(SCc4ccc(Cl)cc4)nccn3c2=O)cc1 [CBK300541] | 143.149%
24 | Cc1cc2nc(-c3ccc(C(=O)O)cc3)[nH]c2cc1C [CBK096054] | 159.448%
25 | COc1ccccc1N1CCN(C(=O)NCCCN2CCCC2=O)CC1 [CBK155612] | 114.329%

Quoted at random: three compounds from above.
Row | Compound | % of control remaining
25 | COc1ccccc1N1CCN(C(=O)NCCCN2CCCC2=O)CC1 [CBK155612] | 114.329%
20 | COc1ccc(Cl)cc1NC(=O)COc1cccc2ccccc12 [CBK262995] | 141.541%
7 | Cc1cc(NC(=O)c2cccc(C#N)c2)c2ccccc2n1 [CBK116267] | 134.506%

(list continues)

Row | Compound | % of control remaining
26 | C[C@H](Nc1nccnc1-c1cccc(O)c1)c1ccccc1 [CBK037180] | 88.5045%
27 | Cc1nnc(S)n(Cc2ccc(F)cc2)c1=O [CBK288502] | 111.702%
28 | Cc1ccc(NC(=O)CSCc2nc3ccccc3[nH]2)cc1 [CBK267299] | 117.796%
29 | CC(=O)NCCSc1ccc(C(F)(F)F)cn1 [CBK105298] | 104.709%
30 | O=C1c2ccc(-c3ccc4c(c3)C(=O)N(Cc3ccco3)C4=O)cc2C(=O)N1Cc1ccco1 [CBK266578] | 146.857%
31 | O=C(O)c1ccccc1C(=O)c1ccc(Oc2ncc(C(F)(F)F)cc2Cl)cc1 [CBK161648] | 115.245%
32 | Cc1noc(C)c1C(=O)N1CCC2(CC1)CC(=O)c1cc(Br)ccc1O2 [CBK156508] | 100.205%
33 | O=C(O)COc1ccc(Br)cn1 [CBK026021] | 99.6422%
34 | c1ccc2oc(CN3CCC(N4CCCCC4)CC3)cc2c1 [CBK282052] | 128.81%
35 | C=CCN1CCC(C(=O)NC(C)c2cc(OC)ccc2OC)CC1 (centres unmarked) [CBK148762] | 105.998%
36 | O=C(O)CCNS(=O)(=O)c1ccc2[nH]c(=O)[nH]c2c1 [CBK266906] | 153.008%
37 | Cc1nc2c(Oc3ncccn3)cccn2c1N(C)C(=O)C1CCCCC1 [CBK147161] | 159.673%
38 | O=S(=O)(Nc1ccc2[nH]ncc2c1)c1ccc(Br)cc1C(F)(F)F [CBK062529] | 114.023%
39 | Cc1ccc2nc(-c3ccccc3)c(CN3CCCC3)c(O)c2c1 [CBK264736] | 101.885%
40 | Cc1ccccc1-c1nnc(SC(C)C)n1CCN(C)CC(F)(F)F [CBK200090] | 100.551%
41 | O=C(NCCc1c[nH]c2ccccc12)c1nn(-c2ncccn2)c2ccccc12 [CBK048496] | 128.675%
42 | O=C(NCCCN1CCOCC1)c1ccc2nccnc2c1 [CBK268704] | 91.4224%
43 | CC(C)c1ccc(S(=O)(=O)NCc2ccc(F)c(F)c2F)cc1 [CBK044717] | 83.7921%
44 | CCCCc1cc(=O)[nH]c(N2CCOCC2)n1 [CBK003851] | 92.2984%
45 | O=C(NCC(c1ccco1)N1CCCC1)C1CCCCC1 (centres unmarked) [CBK304560] | 159.262%
46 | O=C(CSc1nnc(-c2cccnc2)s1)Nc1ccc([N+](=O)[O-])cc1 [CBK268777] | 114.47%
47 | C#CCNC(=O)C1CCCN(c2nc3ccccc3n2CC)C1 (centres unmarked) [CBK282433] | 99.4988%
48 | Cc1nn(C)c(C)c1S(=O)(=O)n1ccn(-c2ccc(N(C)C)cc2)c1=O [CBK106610] | 100.114%
49 | COc1ccc(-c2cc(C(=O)Nc3nc4ccccc4[nH]3)cnc2-c2ccc(F)cc2)cn1 [CBK036617] | 94.8178%
50 | CC1CN(c2cc(CNCc3cnn4ccccc34)ccn2)CCO1 (centres unmarked) [CBK304018] | 112.808%
